Source: patent US20180112198

Target: T1, GFP/MCPIP1 fusion (ZC3H12A) (Homo sapiens) (UniProt Q5D1E8)
T1 sequence (limits assumed): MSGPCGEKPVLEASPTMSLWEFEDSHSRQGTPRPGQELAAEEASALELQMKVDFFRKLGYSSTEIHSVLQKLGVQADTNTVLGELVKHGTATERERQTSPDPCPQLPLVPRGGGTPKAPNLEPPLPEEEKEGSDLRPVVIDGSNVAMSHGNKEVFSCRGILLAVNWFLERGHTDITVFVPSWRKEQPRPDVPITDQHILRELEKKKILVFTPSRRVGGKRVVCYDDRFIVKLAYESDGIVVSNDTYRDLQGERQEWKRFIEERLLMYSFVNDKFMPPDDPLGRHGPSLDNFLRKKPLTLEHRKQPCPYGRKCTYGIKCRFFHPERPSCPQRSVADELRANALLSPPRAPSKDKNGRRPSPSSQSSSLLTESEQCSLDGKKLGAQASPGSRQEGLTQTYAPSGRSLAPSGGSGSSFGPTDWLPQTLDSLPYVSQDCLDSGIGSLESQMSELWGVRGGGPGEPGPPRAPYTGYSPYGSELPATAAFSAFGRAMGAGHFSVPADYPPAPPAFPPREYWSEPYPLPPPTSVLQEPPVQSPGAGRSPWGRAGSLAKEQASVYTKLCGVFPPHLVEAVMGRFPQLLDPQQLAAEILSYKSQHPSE
Experiment: EMSA
Details: stem-loop disrupted, cell lysate, protein in a lysate after overexpression, protein details: GFP fusion, Dox-induced in MDA-MB-231/Tet-On cells, label: 3' biotin

Row | Sequence | binding result (variant of huBcl2L1 3'UTR WT probe) | binding result (variant of huBIRC3 3'UTR WT probe)
1 | UGAGGAGACAUUGGCUUGC [huBcl2L1 3'UTR mut probe] | no binding | 
2 | UGCAUAUAUUCGGAAUGACAUU [huBIRC3 3'UTR mut probe] |  | no binding

Results from cells or extracts need not show a direct contact. No signal at the amounts used counts as a negative. Tags and fusion partners may be left off the protein sequences shown.
